This is an account of results in paper PMC11984394.

By UniProt entry, the sequences of proteins in these tests, tags left out. Residues count along the entry.
UniProt P21802, residues 22-821: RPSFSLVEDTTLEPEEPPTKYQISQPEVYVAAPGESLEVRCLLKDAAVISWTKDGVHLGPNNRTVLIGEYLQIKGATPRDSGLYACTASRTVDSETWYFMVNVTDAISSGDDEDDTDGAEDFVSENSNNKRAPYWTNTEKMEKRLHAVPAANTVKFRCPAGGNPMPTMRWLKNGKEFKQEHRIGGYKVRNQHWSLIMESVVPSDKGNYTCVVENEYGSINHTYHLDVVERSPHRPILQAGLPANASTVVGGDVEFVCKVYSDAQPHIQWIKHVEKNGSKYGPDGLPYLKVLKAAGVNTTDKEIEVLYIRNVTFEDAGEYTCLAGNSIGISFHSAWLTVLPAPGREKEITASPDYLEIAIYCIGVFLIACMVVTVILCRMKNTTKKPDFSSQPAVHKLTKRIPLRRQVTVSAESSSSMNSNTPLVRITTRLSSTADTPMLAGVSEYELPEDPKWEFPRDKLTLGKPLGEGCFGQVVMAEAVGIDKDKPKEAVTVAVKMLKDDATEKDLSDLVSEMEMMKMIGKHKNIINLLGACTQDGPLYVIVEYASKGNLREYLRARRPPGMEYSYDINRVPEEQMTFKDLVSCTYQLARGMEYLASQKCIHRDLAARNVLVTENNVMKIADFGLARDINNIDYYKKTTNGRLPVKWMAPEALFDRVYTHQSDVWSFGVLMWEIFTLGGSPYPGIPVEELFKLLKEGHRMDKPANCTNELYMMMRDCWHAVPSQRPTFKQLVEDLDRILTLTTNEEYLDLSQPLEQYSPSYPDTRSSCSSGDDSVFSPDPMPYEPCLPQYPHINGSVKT

Results are given in words; binding and its absence hold for the method and conditions named. Binding seen in cells or lysates may run through a third protein. Some entries that bind do so weakly or less than the wild type.

The target of the test is T1, recombinant human SFRP1 protein (human) (UniProt Q8N474).
T1 sequence: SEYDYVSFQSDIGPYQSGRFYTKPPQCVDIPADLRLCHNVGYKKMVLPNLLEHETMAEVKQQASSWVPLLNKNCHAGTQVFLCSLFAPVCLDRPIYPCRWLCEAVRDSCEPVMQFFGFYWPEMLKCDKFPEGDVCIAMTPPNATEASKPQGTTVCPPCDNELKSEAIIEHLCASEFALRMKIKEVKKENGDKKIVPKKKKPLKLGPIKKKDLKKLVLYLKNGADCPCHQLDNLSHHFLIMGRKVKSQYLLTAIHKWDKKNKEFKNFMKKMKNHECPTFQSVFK
The test can be described thus: co-IP; SFRP1 IP and IgG groups derived from the IP-MS products (SW480 cells incubated with rhSFRP1 for 48 h); whole-cell lysate as input; Western blot; only the target purified. In general terms: In western blotting, separated proteins are transferred to a membrane and probed.

Consider “FGFR2 receptor (from UniProt P21802 22-821)”, for which the binding entry was “binds”.
